Reference: patent US20120107933A1 (GOVERNMENT OF THE UNITED STATES AS REPRESENTED BY THE …, published 2012)
No constants are given. Whether binding was seen depends on the method and setting. Some results given as binding are weak or reduced against the parent protein; the word gives no strength.

Protein sequences, listed by entry. Tags and fused reporters are not part of them. Lines headed by an entry give the natural chain unless they say otherwise; changes in a name come on top. Chains listed by the source or under a name are the forms on record and can include a tag or linker.
recombinant mesothelin protein produced in E. coli (Q13421, form named): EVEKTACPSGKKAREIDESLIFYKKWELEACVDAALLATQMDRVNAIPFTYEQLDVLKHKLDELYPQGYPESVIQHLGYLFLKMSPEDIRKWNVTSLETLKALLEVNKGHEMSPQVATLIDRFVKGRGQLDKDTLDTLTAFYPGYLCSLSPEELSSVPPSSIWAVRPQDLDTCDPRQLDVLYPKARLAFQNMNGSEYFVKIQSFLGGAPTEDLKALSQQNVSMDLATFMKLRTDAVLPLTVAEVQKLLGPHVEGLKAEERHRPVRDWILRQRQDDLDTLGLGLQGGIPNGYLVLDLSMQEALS

Molecular target: recombinant mesothelin protein produced in E. coli (UniProt Q13421)
Assay: phage ELISA

B1: HN1 scFv (monoclonal phage scFv) (scFv)
scFv: QVQLVQSGAEVKRPGASVQVSCRASGYSINTYYMQWVRQAPGAGLEWMGVINPSGVTSYAQKFQGRVTLTNDTSTNTVYMQLNSLTSADTAVYYCARWALWGDFGMDVWGKGTLVTVSSGGGGSGGGGSGGGGSDIQMTQSPSTLSASIGDRVTITCRASEGIYHWLAWYQQKPGKAPKLLIYKASSLASGAPSRFSGSGSGTDFTLTISSLQPDDFATYYCQQYSNYPLTFGGGTKLEIK
binding: binds
